Data as given in PubChem BioAssay AID1508597 (Cure First, 2020)

Assay: 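Genes whose silencing sensitises or protects ovarian cancer cells against rucaparib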 (primary screen)
System: human ovarian carcinoma lines grown from tumours: OCI-P5x (papillary serous) and OCI-C5x (clear cell)
Reagents: siRNA pool against human genes, 1.25 pmol siRNA per well
Time to read-out: 72 h or 96 h, depending on the cell culture
Challenge: rucaparib 20 µM (about IC30) or vehicle, present until read-out
Measurement: 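ATP luminescence measured at 72 or 96 h according to the culture, then normalised and expressed as percent viability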
Direction: viability, normalised: higher = more viable cells remaining
Active means: 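Active when normalised viability falls below 80 percent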
Meaning of the calls: active = viability under 80%; inactive = viability 80% or more
The deposit covers about 2,100 reagents; below is a random part of them. 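Calls flag viability under 80% in either arm, not effects specific to rucaparib; the reference for percent is not stated.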 Not given: the 100% reference.

PADI4 (GeneID 23569), rucaparib or vehicle Rucaparib, cell line OCI-C5x (clear cell), technical replicate 1
- viability, normalised (%): 39.3
- Outcome: active

PADI4 (GeneID 23569), rucaparib or vehicle Rucaparib, cell line OCI-C5x (clear cell), technical replicate 2
- viability, normalised (%): 46.3
- Outcome: active

PADI4 (GeneID 23569), rucaparib or vehicle Rucaparib, cell line OCI-C5x (clear cell), technical replicate 3
- viability, normalised (%): 47.7
- Outcome: active

PADI4 (GeneID 23569), rucaparib or vehicle Rucaparib, cell line OCI-P5x (serous), technical replicate 1
- viability, normalised (%): 54.4
- Outcome: active

PADI4 (GeneID 23569), rucaparib or vehicle Rucaparib, cell line OCI-P5x (serous), technical replicate 2
- viability, normalised (%): 65.7
- Outcome: active

PADI4 (GeneID 23569), rucaparib or vehicle Rucaparib, cell line OCI-P5x (serous), technical replicate 3
- viability, normalised (%): 53
- Outcome: active

PADI4 (GeneID 23569), rucaparib or vehicle Vehicle, cell line OCI-C5x (clear cell), technical replicate 1
- viability, normalised (%): 52.9
- Outcome: active

PADI4 (GeneID 23569), rucaparib or vehicle Vehicle, cell line OCI-C5x (clear cell), technical replicate 2
- viability, normalised (%): 51.2
- Outcome: active

PADI4 (GeneID 23569), rucaparib or vehicle Vehicle, cell line OCI-C5x (clear cell), technical replicate 3
- viability, normalised (%): 52.7
- Outcome: active

PADI4 (GeneID 23569), rucaparib or vehicle Vehicle, cell line OCI-P5x (serous), technical replicate 1
- viability, normalised (%): 60.1
- Outcome: active

PADI4 (GeneID 23569), rucaparib or vehicle Vehicle, cell line OCI-P5x (serous), technical replicate 2
- viability, normalised (%): 60.3
- Outcome: active

PADI4 (GeneID 23569), rucaparib or vehicle Vehicle, cell line OCI-P5x (serous), technical replicate 3
- viability, normalised (%): 69
- Outcome: active

RNF40 (GeneID 9810), rucaparib or vehicle Rucaparib, cell line OCI-C5x (clear cell), technical replicate 1
- viability, normalised (%): 38.6
- Outcome: active

RNF40 (GeneID 9810), rucaparib or vehicle Rucaparib, cell line OCI-C5x (clear cell), technical replicate 2
- viability, normalised (%): 38.9
- Outcome: active

RNF40 (GeneID 9810), rucaparib or vehicle Rucaparib, cell line OCI-C5x (clear cell), technical replicate 3
- viability, normalised (%): 31.6
- Outcome: active

RNF40 (GeneID 9810), rucaparib or vehicle Rucaparib, cell line OCI-P5x (serous), technical replicate 1
- viability, normalised (%): 41.7
- Outcome: active

RNF40 (GeneID 9810), rucaparib or vehicle Rucaparib, cell line OCI-P5x (serous), technical replicate 2
- viability, normalised (%): 32.7
- Outcome: active

RNF40 (GeneID 9810), rucaparib or vehicle Rucaparib, cell line OCI-P5x (serous), technical replicate 3
- viability, normalised (%): 43.4
- Outcome: active

RNF40 (GeneID 9810), rucaparib or vehicle Vehicle, cell line OCI-C5x (clear cell), technical replicate 1
- viability, normalised (%): 34.1
- Outcome: active

RNF40 (GeneID 9810), rucaparib or vehicle Vehicle, cell line OCI-C5x (clear cell), technical replicate 2
- viability, normalised (%): 34.4
- Outcome: active

RNF40 (GeneID 9810), rucaparib or vehicle Vehicle, cell line OCI-C5x (clear cell), technical replicate 3
- viability, normalised (%): 45.4
- Outcome: active

RNF40 (GeneID 9810), rucaparib or vehicle Vehicle, cell line OCI-P5x (serous), technical replicate 1
- viability, normalised (%): 45.3
- Outcome: active

RNF40 (GeneID 9810), rucaparib or vehicle Vehicle, cell line OCI-P5x (serous), technical replicate 2
- viability, normalised (%): 59.6
- Outcome: active

RNF40 (GeneID 9810), rucaparib or vehicle Vehicle, cell line OCI-P5x (serous), technical replicate 3
- viability, normalised (%): 42.5
- Outcome: active
